# Reference: PubChem BioAssay (Tox21)
# By UniProt entry, the sequences of proteins in these tests, tags left out. Where a name states a change or a piece, a line headed by the entry shows the natural chain unless it says otherwise.
# UniProt P28223, whole entry, looked up: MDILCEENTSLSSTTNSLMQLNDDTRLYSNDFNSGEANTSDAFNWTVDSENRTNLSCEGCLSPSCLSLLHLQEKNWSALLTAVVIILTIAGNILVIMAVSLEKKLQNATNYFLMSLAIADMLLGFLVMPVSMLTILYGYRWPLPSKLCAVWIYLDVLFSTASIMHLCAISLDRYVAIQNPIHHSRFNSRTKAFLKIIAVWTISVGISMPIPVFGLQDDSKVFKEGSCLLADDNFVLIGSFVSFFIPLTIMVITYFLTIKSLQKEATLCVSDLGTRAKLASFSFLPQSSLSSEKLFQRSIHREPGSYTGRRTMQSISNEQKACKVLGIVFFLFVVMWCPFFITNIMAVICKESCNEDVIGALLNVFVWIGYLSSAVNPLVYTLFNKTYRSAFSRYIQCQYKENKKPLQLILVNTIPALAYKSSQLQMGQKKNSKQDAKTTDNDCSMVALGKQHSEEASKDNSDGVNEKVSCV
# UniProt P14416, whole entry, looked up: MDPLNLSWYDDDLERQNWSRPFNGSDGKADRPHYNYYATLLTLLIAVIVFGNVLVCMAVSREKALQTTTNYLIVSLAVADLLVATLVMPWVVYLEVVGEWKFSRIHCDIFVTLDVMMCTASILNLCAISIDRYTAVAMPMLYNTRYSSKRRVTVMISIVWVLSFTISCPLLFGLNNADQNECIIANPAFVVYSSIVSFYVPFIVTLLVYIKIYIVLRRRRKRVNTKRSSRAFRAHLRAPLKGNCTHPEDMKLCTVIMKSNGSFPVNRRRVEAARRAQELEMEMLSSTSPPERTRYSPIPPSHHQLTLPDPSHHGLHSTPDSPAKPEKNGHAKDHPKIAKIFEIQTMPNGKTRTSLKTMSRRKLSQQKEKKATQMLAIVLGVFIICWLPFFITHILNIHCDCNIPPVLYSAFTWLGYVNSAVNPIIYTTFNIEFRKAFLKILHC
# UniProt P11229: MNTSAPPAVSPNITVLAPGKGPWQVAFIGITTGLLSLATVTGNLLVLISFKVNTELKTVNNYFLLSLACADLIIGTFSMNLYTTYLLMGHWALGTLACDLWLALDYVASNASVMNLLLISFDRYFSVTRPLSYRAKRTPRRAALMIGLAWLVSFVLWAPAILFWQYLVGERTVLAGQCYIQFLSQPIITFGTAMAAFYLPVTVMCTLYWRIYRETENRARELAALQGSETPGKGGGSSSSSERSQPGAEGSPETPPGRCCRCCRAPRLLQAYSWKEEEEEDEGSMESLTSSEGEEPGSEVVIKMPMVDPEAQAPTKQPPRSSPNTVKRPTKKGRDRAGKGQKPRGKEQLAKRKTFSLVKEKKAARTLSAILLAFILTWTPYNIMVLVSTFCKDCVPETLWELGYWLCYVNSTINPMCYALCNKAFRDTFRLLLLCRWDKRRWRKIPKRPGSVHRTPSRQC
# “And” between values parts separate entries of the source, which are not always exact repeats. Identical values can stand only once. Inconclusive means that the source gave no clear call. Such entries were picked first, then a sample of the others. For some assays here: Potencies of inconclusive entries are doubtful fits and often do not repeat. Some compounds were tested as several samples or in several runs, with calls that do not always agree. The source made the active and inactive calls. Unless noted, the call rests on the fitted dose curve.
# Experiments:
# [1] = p53 small molecule agonists, cell-based qHTS assay with human liver microsomes: qHTS cell viability counter screen (AID 1963579); further: nearly all actives have a fitted effect of over 45% in size; further: potency means the concentration at half of the fitted maximal effect
# Procedure, shortened: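 HLM-supplemented (0.5 mg/mL final) and NADPH-supplemented (0.5 mg/mL final) p53RE-bla cultures, 4,000 cells per well, were dosed with compounds in DMSO for 16 h at 37 C; luminescent ATP detection (CellTiter-Glo, 30 min, room temperature) quantified surviving cells.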
# [2] = p53 small molecule agonists, cell-based qHTS assay (AID 1963582; active means well fitted activation curve with a large enough effect in the signal ratio in the repeat runs, not every such curve was filed as active; inconclusive means weak or mixed curves; the % refers to the signal ratio; further: potency means the concentration at half of the fitted maximal effect; on activation: on the % scale 0 is the no-effect control and ±100 the full control effect); settings: HCT-116 p53RE-bla reporter, beta-lactamase FRET ratio, 16 h; activation: at 66 µM (top of the series) unless noted
# Procedure, shortened: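 Agonist activity was scored from beta-lactamase FRET fluorescence in p53RE-bla cells treated 16 h at 37 C with compounds in DMSO, substrate incubation being 2 h at room temperature.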
# [3] = cAMP Responsive Elements (CRE) small molecule agonists, cell-based qHTS assay (AID 1963590); settings: CRE-bla HEK293T, beta-lactamase FRET ratio, 3 h; activation: at 92.4 µM (top of the series) unless noted; further: potency means the concentration at half of the fitted maximal effect; on activation: on the % scale 0 is the no-effect control and ±100 the full control effect
# Procedure, shortened: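 FRET-based beta-lactamase readout (LiveBLAzer B/G, 2 h RT) quantified CRE activation in HEK 293T CRE-bla cells after 3 h treatment with DMSO-dissolved compounds.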
# [4] = target: Beta-2 adrenergic receptor (Homo sapiens) (UniProt P07550); test: Adrenergic beta2 receptor (ADRB2) small molecule agonists, cell-based qHTS assay (AID 1963593); settings: CHO-ADRB2 cells, cAMP HTRF, 30 min; activation: at 92.4 µM (top of the series) unless noted; further: potency means the concentration at half of the fitted maximal effect;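 on activation: CHO cells stably overexpressing human ADRB2; on the % scale 0 is the no-effect control and ±100 the full control effect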
# Procedure, shortened: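 CHO cells stably over-expressing ADRB2 were plated overnight at 37C, then dosed with compounds plus a stimulation mix containing 100uM IBMX and 25uM Ro-20-1724 for 0.5hr at room temperature. cAMP was measured by HTRF competition, 1hr.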
# [5] = p53 small molecule agonists, cell-based qHTS assay with rat liver microsomes: qHTS cell viability counter screen (AID 1963580); further: potency means the concentration at half of the fitted maximal effect; nearly all actives have a fitted effect of over 45% in size
# Procedure, shortened: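 Intracellular ATP, by CellTiter-Glo luminescence, defines viability. HCT-116 p53RE-bla cells, 4,000 per well, were compound-treated in the presence of rat liver microsomes and NADPH for 16 h at 37 C.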
# [6] = p53 small molecule agonists, cell-based qHTS assay: qHTS cell viability counter screen (AID 1963581); further: potency means the concentration at half of the fitted maximal effect; nearly all actives have a fitted effect of over 45% in size
# Procedure, shortened: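 Compounds are pinned onto HCT-116 p53RE-bla cells and left 16 h at 37 C. Following the reporter FRET read, ATP is quantified by CellTiter-Glo luminescence after 30 min at room temperature.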
# [7] = target: 5-hydroxytryptamine receptor 2A (Homo sapiens) (UniProt P28223); test: 5-hydroxytryptamine receptor 2A (HTR2A) small molecule agonists, cell-based qHTS assay (AID 1963587); settings: HTR2A-CHO cells, calcium flux fluorescence, agonist mode; activation: at 76.8 µM (top of the series); further: on the % scale 0 is the no-effect control and ±100 the full control effect; nearly all actives have a fitted effect of over 30% in size
# Procedure, shortened: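 Kinetic calcium-flux fluorescence (2 min, 1 sec intervals) after compound addition in agonist mode. HTR2A-CHO cells were cultured 18 h, then dye-loaded 1 h at 37 C.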
# [8] = cAMP Responsive Elements (CRE) small molecule antagonists, cell-based qHTS assay (AID 1963591; active means well fitted inhibition curve with a large enough effect in the signal ratio in the repeat runs, not every such curve was filed as active; inconclusive means weak or mixed curves, or effect the other way; the % refers to the signal ratio; further: potency means the concentration at half of the fitted maximal effect); settings: CRE-bla HEK293T, beta-lactamase FRET ratio
# Procedure, shortened: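 qHTS in CRE-bla HEK 293T cells: compound in DMSO, then 0.25 uM NKH477 (final), 3 h at 37 °C/5% CO2; beta-lactamase FRET read-out after 2 h substrate incubation.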
# [9] = target: 5-hydroxytryptamine receptor 2A (Homo sapiens) (UniProt P28223); test: 5-hydroxytryptamine receptor 2A (HTR2A) small molecule antagonists, cell-based qHTS assay (AID 1963586); further: nearly all actives have a fitted effect of over 45% in size; further: potency means the concentration at half of the fitted maximal effect
# Procedure, shortened: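 Antagonist-mode intracellular calcium assay: DOI (4 nM) added after 5 min compound pre-incubation at room temperature to dye-loaded HTR2A-CHO cells. Fluorescence followed for 3 min, sampled every second.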
# [10] = target: D(2) dopamine receptor (Homo sapiens) (UniProt P14416); test: Dopamine D2 receptor (DRD2) small molecule antagonists, cell-based qHTS assay (AID 1963595; active means well fitted inhibition curve with a large enough effect in the signal ratio in the repeat runs, with a control signal flat; inconclusive means weak or mixed curves, or effect the other way; the % refers to the signal ratio; further: on the % scale 0 is the no-effect control and ±100 the full control effect); settings: HEK293-DRD2 cAMP HTRF antagonist mode; activity change, negative = inhibition: at 92.4 µM (top of the series) unless noted
# Procedure, shortened: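 In this cell-based antagonist screen, compounds act for 10 min at room temperature before a 30 min challenge with 12 nM quinpirole and 200 nM NKH477. cAMP is quantified by HTRF competition in DRD2-HEK293 cells containing 0.1 mM Ro20-1724.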
# [11] = target: Muscarinic acetylcholine receptor M1 (Homo sapiens) (UniProt P11229); test: Cholinergic receptor muscarinic 1 (CHRM1) small molecule antagonists, cell-based qHTS assay (AID 1963588); further: potency means the concentration at half of the fitted maximal effect; nearly all actives have a fitted effect of over 40% in size
# Procedure, shortened: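 CHRM1-CHO calcium-flux assay, antagonist mode. Cells were seeded 18 h, dye-loaded 1 h at 37 C and given compound for 5 min at RT, then acetylcholine was added at 50nM. FDSS fluorescence was read 3 min; 15 concentrations, three runs.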
# [12] = target: Beta-2 adrenergic receptor (Homo sapiens) (UniProt P07550); test: Adrenergic beta2 receptor (ADRB2) small molecule antagonists, cell-based qHTS assay (AID 1963592); settings: CHO-ADRB2 cells, isoproterenol-stimulated cAMP HTRF ratio, 0.5 h; activity change, negative = inhibition: at 92.4 µM (top of the series) unless noted; further: nearly all actives have a fitted effect of over 50% in size; further: potency means the concentration at half of the fitted maximal effect
# Procedure, shortened: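 Cells (CHO, stable ADRB2 overexpression) incubated 18-20hr at 37C; compounds added from DMSO; agonist mix (1nM isoproterenol, 100uM IBMX, 25uM Ro-20-1724) added; 0.5hr RT; d2-cAMP and anti-cAMP-cryptate added; 1hr RT; 665/615 nm read.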
# [13] = target: Muscarinic acetylcholine receptor M1 (Homo sapiens) (UniProt P11229); test: Cholinergic receptor muscarinic 1 (CHRM1) small molecule agonists, cell-based qHTS assay (AID 1963589); settings: CHRM1-CHO cells, agonist mode, calcium flux fluorescence; activation: at 76.8 µM (top of the series); further: on the % scale 0 is the no-effect control and ±100 the full control effect; nearly all actives have a fitted effect of over 35% in size
# Procedure, shortened: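 Stable CHRM1-CHO cells (human receptor) were incubated 18 h, dye-loaded for 1 h at 37 C and exposed to test compounds for agonist activity, with calcium-dependent fluorescence followed kinetically.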
# [14] = activity change, negative = inhibition: at 92.4 µM (top of the series) unless noted
compound,measurement,setting,value
C[C@H]1[C@@H]2Cc3ccc(O)cc3[C@@]1(C)CCN2C,Potency,[1],"inconclusive: 1.1 µM [rising, full curve, poor fit]"
same,Potency,[2],inactive
same,Potency,[3],inactive
same,Potency,[4],inactive
NC(=S)Nc1ccccc1,Potency,[1],"inconclusive: 32.9 µM [cytotoxic, partial curve, poor fit]"
same,Potency,[5],active: 29.4 µM
same,Potency,[6],"inconclusive: 3.7 µM [rising, partial curve]"
same,Potency,[7],inactive
same,Potency,[3],"inconclusive: 13.9 µM [fluorescent, full curve]"
same,Potency,[8]; [14],"inconclusive: 22 µM [rising, partial curve]"
[O]=[Cr](=[O])([OH])[O][Cr](=[O])(=[O])[OH],Potency,[1],inconclusive: 51.8 µM [cytotoxic] and active: 40.7 µM
same,Potency,[5],"inconclusive: 41.2 µM [cytotoxic] and inconclusive: 51.2 µM [cytotoxic, single point]"
same,Potency,[6],"active: 18.4 µM and inconclusive: 162 nM [cytotoxic, full curve, poor fit]"
same,Potency,[2],"inconclusive: 29.1 µM [fluorescent] and inconclusive: 14.4 µM [activator, partial curve]"
same,Potency,[3],"inconclusive: 34.3 µM [rising, partial curve, poor fit]"
same,Potency,[4],"inconclusive: 2.19 µM [activator, full curve, poor fit]"
same,activation,[4],inconclusive: 53.7%
O=C(O)CCCCCCNC1c2ccccc2CCc2ccccc21,Potency,[1],"inconclusive: 7.07 µM [rising, partial curve]"
same,Potency,[6],"inconclusive: 3.16 µM [rising, partial curve, poor fit]"
same,Potency,[2],"inconclusive: 8.9 µM [rising, partial curve, poor fit]"
same,Potency,[9],inactive
same,Potency,[3],inactive
same,Potency,[4],inactive
same,"activity change, negative = inhibition",[10],inconclusive: 8.9% [at 42.5 µM]
O=C1c2ccccc2C(=O)C1C(=O)C(c1ccccc1)c1ccc(Cl)cc1 (centres undefined),Potency,[1],"inconclusive: 18.2 µM [cytotoxic, partial curve]"
same,Potency,[6],"inconclusive: 22.9 µM [cytotoxic, partial curve, poor fit]"
same,Potency,[9],active: 4.21 µM
same,Potency,[11],"inconclusive: 47.2 µM [inhibitor, single point]"
same,Potency,[3],"inconclusive: 61.1 µM [rising, partial curve]"
same,Potency,[8]; [14],inactive
same,activation,[4],inconclusive: -34.8%
CC(COc1ccc(Oc2ccccc2)cc1)Oc1ccccn1 (centres undefined),Potency,[1],inactive
same,Potency,[8]; [14],inactive
same,activation,[4],inconclusive: 32.2%
Nc1ccc2c(c1)Cc1ccccc1-2,Potency,[1],inactive
same,Potency,[3],"inconclusive: 38.3 µM [rising, partial curve, poor fit]"
same,"activity change, negative = inhibition",[12],inconclusive: -20.4%
O=C=NC1CCCCC1,Potency,[1],inactive
same,activation,[4],inconclusive: -23.6%
CC(c1ccc(O)cc1)c1ccc(O)cc1,Potency,[1],inactive
same,Potency,[9],"inconclusive: 21.1 µM [inhibitor, partial curve, poor fit]"
same,Potency,[4],"inconclusive: 0.486 µM [activator, full curve, poor fit]"
same,activation,[4],inconclusive: -30.8%
same,"activity change, negative = inhibition",[10],inconclusive: 2.67%
CCN(CC)C(C)C(=O)c1ccccc1 (centres undefined),Potency,[1],"inconclusive: 0.793 µM [cytotoxic, full curve, poor fit]"
same,Potency,[9],"inconclusive: 5.16 µM [inhibitor, single point]"
same,Potency,[4],"inconclusive: 18.8 µM [inhibitor, single point]"
CC(=O)[C@H]1CC[C@H]2[C@@H]3CC[C@H]4C[C@H](O)CC[C@]4(C)[C@H]3C(=O)C[C@]12C,Potency,[1],"inconclusive: 22.3 µM [rising, single point]"
same,Potency,[13],inactive
same,Potency,[8]; [14],"inconclusive: 15 µM [activator, partial curve, poor fit]"
same,Potency,[4],inactive
CC1Sc2c(C(=O)O)c(=O)c3cc(F)c(N4CCNCC4)cc3n21 (centres undefined),Potency,[1],inactive
same,Potency,[3],"inconclusive: 29.8 µM [rising, partial curve]"
same,"activity change, negative = inhibition",[8]; [14],inconclusive: 17.6% [at 42.4 µM]
same,Potency,[12],inconclusive: 11.9 µM
same,Potency,[4],inconclusive: 13.3 µM
NNC(N)=O,Potency,[1],"inconclusive: 46.9 µM [cytotoxic, single point]"
same,"activity change, negative = inhibition",[8]; [14],inconclusive: 1.57%
C/C=C/c1ccc2c(c1)OCO2,Potency,[1],inactive
same,Potency,[4],"inconclusive: 0.441 µM [inhibitor, partial curve, poor fit]"
same,activation,[4],inconclusive: 10.1%
Cc1cc(-c2ccc(N)c(C)c2)ccc1N,Potency,[1],active: 4.07 µM
same,Potency,[9],"inconclusive: 118 nM [inhibitor, full curve, poor fit] and inconclusive: 47.2 µM [inhibitor, single point]"
same,Potency,[7],inactive
same,Potency,[3],"inconclusive: 67.6 µM [activator, single point]"
same,"activity change, negative = inhibition",[8]; [14],inconclusive: -5.62%
same,"activity change, negative = inhibition",[8]; at 92.4 µM (top of the series),inactive: 1.38% and inactive: -7.81% and inactive: -1.29%
same,activation,[4],inconclusive: -62.8% and inconclusive: -28.8%
CC(Cc1ccccc1)NCCn1cnc2c1c(=O)n(C)c(=O)n2C (centres undefined),Potency,[1],inactive
same,Potency,[11],"inconclusive: 14.7 µM [inhibitor, full curve]"
same,Potency,[4],inactive
same,Potency,[10],inactive
O=C(Cl)c1ccccc1F,Potency,[1],"inconclusive: 50.7 µM [cytotoxic, single point]"
same,activation,[4],inconclusive: -1.08%
